Publication doi:10.1101/2021.05.22.445238
These are yes or no findings as the source states them, for the method shown. Binding seen in cells or lysates may run through a third protein. Some entries that bind do so weakly or less than the wild type.

Protein sequences, listed by entry. Tags and fused reporters are not part of them.
UniProt Q9H9S0: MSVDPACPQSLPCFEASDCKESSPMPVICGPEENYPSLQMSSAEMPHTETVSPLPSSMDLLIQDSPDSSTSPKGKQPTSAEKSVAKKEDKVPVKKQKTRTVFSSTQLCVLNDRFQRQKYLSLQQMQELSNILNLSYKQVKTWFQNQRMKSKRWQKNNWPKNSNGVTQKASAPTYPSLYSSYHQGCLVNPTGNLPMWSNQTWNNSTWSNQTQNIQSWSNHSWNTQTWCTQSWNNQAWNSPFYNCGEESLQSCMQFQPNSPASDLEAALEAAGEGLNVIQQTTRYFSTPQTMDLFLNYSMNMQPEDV
UniProt P36402: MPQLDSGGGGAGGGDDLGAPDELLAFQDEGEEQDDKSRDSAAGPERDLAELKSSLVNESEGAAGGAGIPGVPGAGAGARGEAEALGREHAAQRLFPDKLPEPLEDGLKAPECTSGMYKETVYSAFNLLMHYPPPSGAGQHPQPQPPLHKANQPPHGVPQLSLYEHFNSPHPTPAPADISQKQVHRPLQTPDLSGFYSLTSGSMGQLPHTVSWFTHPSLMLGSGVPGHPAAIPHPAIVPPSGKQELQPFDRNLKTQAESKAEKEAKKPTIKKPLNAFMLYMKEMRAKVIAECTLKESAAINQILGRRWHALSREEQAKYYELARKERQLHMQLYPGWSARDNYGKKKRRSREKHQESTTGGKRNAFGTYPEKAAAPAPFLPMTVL

Molecular target: FLAG-NANOG (human) (UniProt Q9H9S0)
Test: co-IP

Substance: TCF7 (from UniProt P36402 1-384)
- binding: binds
